# PubChem BioAssay AID1053208 | Peter MacCallum Cancer Centre, 2014
# Assay: 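Synthetic lethal interactions between gene loss and doxorubicin in osteosarcoma cells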 (primary screen)
# Cell system: mouse osteosarcoma cells, early-passage culture from an engineered mouse model of fibroblastic bone tumour
# Knock-down reagent: siRNA pool against mouse genes, 40 nM
# Timing: about 120 h (48 h before drug, then 72 h with drug)
# Treatment: doxorubicin 100 nM for 72 h, roughly 30-40% inhibitory dose
# Measurement: 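Viability read as ATP luminescence after 72 h of 100 nM doxorubicin or none, duplicate wells averaged, scaled to non-targeting siRNA, then expressed as robust z-scores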
# Reading the numbers: viability z-score with doxorubicin and doxorubicin viability vs non-targeting: higher = more viable cells under doxorubicin; viability z-score without drug: higher = more viable cells with knock-down alone; z-score of drug to no-drug ratio: higher = less drug sensitisation by knock-down
# Active means: 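a pool counts as active when its viability z-score with doxorubicin is -2 or below and its z-score without drug lies between -2 and 2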
# The deposit covers about 17,000 reagents; below is a random part of them. 788 of all reagents (4.7%) were called active. 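Calls rest on z-score classes alone; an extra cut-off of viability at most 70% of control was not applied to them.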
gene symbol,PubChem SID,combined z-score class,viability z-score with doxorubicin,viability z-score without drug,z-score of drug to no-drug ratio,doxorubicin viability vs non-targeting,Outcome
Gpr152 (G protein-coupled receptor 152),SID152339129,no change with or without drug,0.79,0.34,0.67,1.01,inactive
"Ptpn5 (protein tyrosine phosphatase, non-receptor type 5)",SID152334391,no change with or without drug,-0.22,-1.18,0.79,0.92,inactive
Vps37c (vacuolar protein sorting 37C),SID152331782,no change with or without drug,1.35,0.17,1.35,1.06,inactive
Zfp94 (zinc finger protein 94),SID152275014,no change with or without drug,1.35,1.52,0.45,1.06,inactive
Arhgef2 (Rho/Rac guanine nucleotide exchange factor 2),SID152337242,no change with or without drug,-0.45,0.84,-0.9,0.9,inactive
E130016E03RIK,SID152311248,high cell count with doxorubicin only,2.02,1.18,1.35,1.12,inactive
Xab2 (XPA binding protein 2),SID152308385,low cell count with doxorubicin only,-2.81,-1.52,-2.02,0.69,active
Ppwd1 (peptidylprolyl isomerase domain and WD repeat containing 1),SID152312655,no change with or without drug,0.79,-0.34,1.24,1.01,inactive
Or5ap2 (olfactory receptor family 5 subfamily AP member 2),SID152297200,no change with or without drug,-1.69,-0.51,-1.35,0.79,inactive
Prss23 (serine protease 23),SID152323468,low cell count with doxorubicin only,-2.7,-0.51,-2.47,0.7,active
Pygb (brain glycogen phosphorylase),SID152267805,no change with or without drug,0.56,-0.51,1.12,0.99,inactive
Spag17 (sperm associated antigen 17),SID152284440,high cell count without drug only,1.69,2.19,0.34,1.09,inactive
Tex2 (testis expressed gene 2),SID152310166,no change with or without drug,-0.22,-0.17,0,0.92,inactive
Mcm4 (minichromosome maintenance complex component 4),SID152325326,no change with or without drug,1.24,0.84,0.79,1.05,inactive
Slc7a13,SID152272234,no change with or without drug,0.67,0.34,0.56,1,inactive
Hccs (holocytochrome c synthetase),SID152274722,no change with or without drug,0.79,0.34,0.67,1.01,inactive
Kcnb2,SID152277705,no change with or without drug,-1.35,-0.51,-1.01,0.82,inactive
Trip10 (thyroid hormone receptor interactor 10),SID152311616,no change with or without drug,-0.79,0.17,-0.79,0.87,inactive
Spata6l (spermatogenesis associated 6 like),SID152267913,no change with or without drug,-1.12,-0.17,-1.01,0.84,inactive
Slc22a12,SID152289609,no change with or without drug,-0.67,1.52,-1.46,0.88,inactive
